The campaign covered roughly 330,000 compounds. About 20 (0.006%) were called active. The inconclusive results got no clear call from the source; some entries with a clear call stand among them for comparison. Calls come from the whole dose curve; as a rule, active = well fitted inhibition curve with a large enough effect; inconclusive = small, poorly fitted or top-dose-only effect, or effect the other way; inactive = flat fitted curve, though single readings scatter. Potencies of inconclusive entries are doubtful fits and often do not repeat.
What follows are compounds tested against Protein phosphatase EYA2 (Homo sapiens) (UniProt O00167) (assay: qHTS Assay for Inhibitors of the Phosphatase Activity of Eya2). Details: recombinant Eya2, OMFP fluorescence dephosphorylation (OMFP is methylfluorescein phosphate); activity, negative = inhibition: at 76.9 µM (top of the series) unless noted.
Procedure, shortened: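 Eya2 (0.2 uM) preincubated 10 min at ambient with compound, then OMFP substrate added at 50 uM; 10 min reaction in 50 mM HEPES pH 7.5, 50 mM NaCl, 5 uM MgCl2, 0.05% BSA, 1 mM DTT. Fluorescence read at Ex 485/Em 525 nm.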
% is set by controls: 0 for no effect and ±100 for the full control effect; potency is the fitted concentration of half-maximal effect.

By UniProt entry, the sequences of proteins in these tests, tags left out. Where a name states a change or a piece, a line headed by the entry shows the natural chain unless it says otherwise.
UniProt O00167: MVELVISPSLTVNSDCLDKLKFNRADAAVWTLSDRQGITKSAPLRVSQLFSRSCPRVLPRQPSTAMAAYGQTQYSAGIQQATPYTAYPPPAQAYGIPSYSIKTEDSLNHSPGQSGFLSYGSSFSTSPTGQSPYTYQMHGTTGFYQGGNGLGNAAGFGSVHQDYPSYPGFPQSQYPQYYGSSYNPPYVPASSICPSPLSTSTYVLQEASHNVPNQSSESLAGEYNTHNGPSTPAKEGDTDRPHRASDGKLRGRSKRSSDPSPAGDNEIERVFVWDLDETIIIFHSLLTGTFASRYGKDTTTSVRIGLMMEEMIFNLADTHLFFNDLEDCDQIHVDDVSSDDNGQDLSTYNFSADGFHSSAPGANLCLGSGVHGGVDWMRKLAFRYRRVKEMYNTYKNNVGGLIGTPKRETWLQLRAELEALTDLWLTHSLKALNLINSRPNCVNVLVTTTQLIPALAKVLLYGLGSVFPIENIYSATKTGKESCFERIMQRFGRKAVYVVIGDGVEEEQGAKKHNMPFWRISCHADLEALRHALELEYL

How did the Potency turn out when `O=C(Cc1ccccc1)N1CCC(c2ccccc2)C1` (stereo unspecified) was run?
Its Potency is inconclusive: 398 µM [inhibitor, partial curve].

How did the Potency turn out when `CC(C)(CC(=O)O)CC(=O)Nc1cc(C(F)(F)F)cc(C(F)(F)F)c1` was run?
Its Potency is inconclusive: 89.1 µM [inhibitor, single point].

`CCC1(CC)NC(=O)N(CC(=O)N2CCc3ccccc32)C1=O` was tested. Which “activity, negative = inhibition” value did it give?
The value was inactive: -6.83%.

How did the Potency turn out when `O=S(=O)(/N=C(\Sc1ccc(Cl)cc1)c1ccccc1)c1ccccc1` was run?
The Potency was inconclusive: 17.8 µM [inhibitor, single point].

Which “activity, negative = inhibition” value does the source give for `O=C(N/N=C/c1ccccn1)c1cc(-c2ccc3ccccc3c2)n[nH]1` here?
Its value is inactive: -8.31%.

For `c1cncc(-c2nc(NCCCn3ccnc3)c3ccccc3n2)c1`, which Potency is on record?
Its Potency is inconclusive: 200 µM [inhibitor, partial curve, poor fit].

Which “activity, negative = inhibition” value does the source give for `COc1ccc2c(c1)c1nc3ccccc3nc1n2CCn1c(=O)oc2ccccc21` here?
The value was inactive: -21.9%.

How did the Potency turn out when `CN(C)CCOC(c1ccccc1)c1ccccc1` was run?
The Potency was inconclusive: 22.4 µM [inhibitor, single point].

For `COc1ccc(/C=C(\NC(=O)c2ccc([N+](=O)[O-])cc2)C(=O)NCCN2CCOCC2)cc1`, which Potency is on record?
The Potency was inconclusive: 100 µM [inhibitor, partial curve, poor fit].

Which Potency does the source give for `O=C(NCCc1ccc(Cl)cc1)c1cc2ccccn2n1` here?
The Potency was inconclusive: 28.2 µM [inhibitor, partial curve].

With `CC(NC(=O)c1ccco1)C(=O)N1CCN(c2ccccc2)CC1` (stereo unspecified) as the compound, how does the Potency read?
The Potency was inconclusive: 100 µM [inhibitor, single point].

How did the Potency turn out when `CCN(CC)S(=O)(=O)c1ccc2[nH]cc(C(=O)NC3CC3)c(=O)c2c1` was run?
Its Potency is inconclusive: 25.1 µM [inhibitor, single point].

Which Potency does the source give for `CN(C)/C=C1\C(=O)N(C)N=C1C(F)(F)F` here?
The Potency was inconclusive: 708 µM [inhibitor, single point].

Which Potency does the source give for `Nc1nnnn1CC(=O)N/N=C/c1cccs1` here?
Its Potency is inconclusive: 28.2 µM [inhibitor, partial curve, poor fit].

Which “activity, negative = inhibition” value does the source give for `c1ccc(Nc2ccccc2Nc2ccccn2)nc1` here?
Its value is inactive: 0.435%.

How did the activity, negative = inhibition turn out when `O=C1/C(=C/c2ccc(N3CCCC3)cc2)NC(=S)N1C1CC1` was run?
Its activity, negative = inhibition is inconclusive: 150% [activator].

With `O=C(Nc1ccc(F)c(F)c1)c1ccc(F)c(S(=O)(=O)N2CCOCC2)c1` as the compound, how does the “activity, negative = inhibition” value read?
Its value is inactive: 20.7%.

`COc1ccc(OC)c2c(C)c(C)[nH]c12` was tested. Which Potency did it give?
Its Potency is inconclusive: 141 µM [inhibitor, partial curve, poor fit].

How did the Potency turn out when `COc1ccc(-c2csc(NC(=O)Cn3nc(C)cc3C)n2)cc1` was run?
The Potency was inconclusive: 22.4 µM [inhibitor, single point].

`COc1ccc(NC(=O)CSc2cc(C(=O)c3nccn3C)c3ccccc3n2)cc1` was tested. Which Potency did it give?
The Potency was inconclusive: 251 µM [inhibitor, partial curve].

For `CC(=O)NC(=S)Nc1ccc([N+](=O)[O-])cc1C`, which Potency is on record?
The Potency was inconclusive: 28.2 µM [inhibitor, partial curve].

Which Potency does the source give for `COCCNC(=O)/C(C#N)=C/c1ccc(OCC(=O)NC2CCCCC2)cc1` here?
Its Potency is inconclusive: 25.1 µM [inhibitor, single point].

How did the “activity, negative = inhibition” value turn out when `COc1ccccc1NC(=O)CSC1=NC(=O)C(NC(C)=O)C(=O)N1` (stereo unspecified) was run?
The value was inactive: 14.2%.

For `O=C(COC(=O)C1CCC(=O)N1)Nc1ccccc1OC(F)F` (stereo unspecified), which “activity, negative = inhibition” value is on record?
Its value is inactive: 6.49%.

For `COc1ccc(C(=O)N/C(=C\c2ccc3c(c2)OCO3)C(=O)N2CCOCC2)cc1`, which Potency is on record?
The Potency was inconclusive: 15.8 µM [inhibitor, single point].

With `CC(C)CC(NC(=O)C1CCC(C)CC1)C(=O)Nc1ccccn1` (stereo unspecified) as the compound, how does the “activity, negative = inhibition” value read?
The value was inactive: -3.61%.

Which Potency does the source give for `FC(F)(F)c1cc(CCN2CCNC[C@@H]2CC2CCCCC2)cc(C(F)(F)F)c1` here?
The Potency was inconclusive: 126 µM [inhibitor, partial curve, poor fit].

With `CCOc1ccc(-n2nnc3c(=O)n(CC(=O)Nc4cc(C)on4)cnc32)cc1` as the compound, how does the Potency read?
The Potency was inconclusive: 100 µM [inhibitor, partial curve, poor fit].

How did the “activity, negative = inhibition” value turn out when `Cc1ccc(SCC(=O)NC(=O)NCc2ccccc2)c(C)c1` was run?
Its value is inactive: -7.04%.

For `O=C(CSc1ccccn1)N1CCN(c2ncc(C(F)(F)F)cc2Cl)CC1`, which Potency is on record?
Its Potency is inconclusive: 126 µM [inhibitor, partial curve].

Which activity, negative = inhibition does the source give for `CC(OC(=O)/C(C#N)=C/c1ccc(N(C)C)cc1)C(=O)N(C)c1ccccc1` (stereo unspecified) here?
The activity, negative = inhibition was inconclusive: 71.3% [activator].

For `Nc1ccc2nc(-c3ccccc3)[nH]c2c1`, which activity, negative = inhibition is on record?
Its activity, negative = inhibition is inconclusive: 31.1% [activator].

Which Potency does the source give for `O=C(OCC(=O)N1CCCC1)c1cccc(Br)c1` here?
The Potency was inconclusive: 12.6 µM [inhibitor, single point].

Which “activity, negative = inhibition” value does the source give for `CC(=O)n1cc(Nc2ccc([N+](=O)[O-])cc2)c2ccccc21` here?
The value was inactive: -7.6%.

Which Potency does the source give for `CC(C)CNC(=S)N1CCN(c2nc(-c3ccc(Cl)cc3)cs2)CC1` here?
Its Potency is inconclusive: 447 µM [inhibitor, single point].

How did the Potency turn out when `CCN1/C(=C/c2ccc3cc(C)ccc3[n+]2CC)Sc2ccccc21` was run?
Its Potency is inconclusive: 15.8 µM [activator, partial curve].

How did the Potency turn out when `COc1ccc(CN(Cc2cccn2C)S(=O)(=O)c2ccc(C)cc2)cc1` was run?
Its Potency is inconclusive: 89.1 µM [inhibitor, single point].

For `CN(C[C@H](Cc1ccccc1)N(CCN(CCc1ccccc1)N=O)N=O)N=O`, which Potency is on record?
Its Potency is inconclusive: 20 µM [inhibitor, single point].

Which “activity, negative = inhibition” value does the source give for `COCC(=O)Nc1ccccc1-c1ccccc1` here?
The value was inactive: -3.49%.

For `CCC(CO)N=CC1=C(O)CC(c2ccccc2)CC1=O` (stereo unspecified), which Potency is on record?
Its Potency is inconclusive: 22.4 µM [inhibitor, single point].

Which “activity, negative = inhibition” value does the source give for `Cc1nc2ncccn2c1-c1csc(Nc2ccccc2)n1` here?
Its value is inactive: -9.11%.

With `O=C(CSc1ccc(-c2ccco2)nn1)NCc1ccc(F)cc1` as the compound, how does the “activity, negative = inhibition” value read?
Its value is inactive: 2.2%.

For `CN(C(=S)NC(=O)C1CC1)c1ccc(O)cc1`, which Potency is on record?
Its Potency is inconclusive: 25.1 µM [inhibitor, single point].

`COc1ccc(C(=O)Nc2ccc(N3CCOCC3)cc2)cc1S(=O)(=O)NC1CCCC1` was tested. Which “activity, negative = inhibition” value did it give?
Its value is inactive: 8.71%.

How did the Potency turn out when `CCO[C@@H]1OC(C(=O)Nc2ccccc2)=C[C@H](C2CC2)[C@H]1CCCO` was run?
Its Potency is inconclusive: 22.4 µM [inhibitor, single point].

How did the Potency turn out when `CC1Sc2ccc(S(=O)(=O)CCC(=O)Nc3cc(F)ccc3F)cc2NC1=O` (stereo unspecified) was run?
Its Potency is inconclusive: 89.1 µM [inhibitor, single point].

`Cc1c(C(=O)NCCSCc2c(F)cccc2Cl)cnn1-c1ccc(F)cc1` was tested. Which Potency did it give?
Its Potency is inconclusive: 50.1 µM [inhibitor, single point].

With `Cc1c(Cl)cccc1NC(=O)CCCn1nc([N+](=O)[O-])cc1C` as the compound, how does the “activity, negative = inhibition” value read?
The value was inactive: 9.24%.

With `Cc1ccc(NC(=O)CN2C(=O)NC3(CCc4ccccc43)C2=O)cc1S(=O)(=O)N1CCCCC1` (stereo unspecified) as the compound, how does the Potency read?
The Potency was inconclusive: 79.4 µM [inhibitor, single point].

With `O=CN1CCN(C(C(=O)NC2CCCCC2)c2cc3c(cc2[N+](=O)[O-])OCO3)CC1` (stereo unspecified) as the compound, how does the Potency read?
Its Potency is inconclusive: 79.4 µM [inhibitor, partial curve, poor fit].

Which Potency does the source give for `Cc1cc(C(=O)NNC(=O)c2cccc(Cl)c2)no1` here?
Its Potency is inconclusive: 44.7 µM [inhibitor, partial curve, poor fit].

`O=C(Nc1c(C(=O)N2CCCCC2)cnn1-c1ccccc1)c1ccccc1` was tested. Which Potency did it give?
The Potency was inconclusive: 89.1 µM [inhibitor, single point].

How did the Potency turn out when `O=C(C/C=N\OCc1ccc(Cl)cc1Cl)Nc1ccccc1` was run?
The Potency was inconclusive: 100 µM [inhibitor, single point].

For `O=c1ccc2c(-c3ccccc3)c3ccc(O)cc3oc-2c1`, which Potency is on record?
Its Potency is inconclusive: 28.2 µM [activator, partial curve, poor fit].

For `CCc1nc2sc3ccccc3c(=O)c2c(=O)n1Cc1ccc(OC)cc1`, which Potency is on record?
Its Potency is inconclusive: 20 µM [inhibitor, single point].

`Cn1cc(/C=C/c2cc[n+](C)cc2)c2cc(F)ccc21` was tested. Which Potency did it give?
The Potency was inconclusive: 31.6 µM [activator, partial curve].

`O=C(NCCC1=CCCCC1)C(=O)NCc1ccccc1` was tested. Which “activity, negative = inhibition” value did it give?
Its value is inactive: -3.08%.

`COC(=O)Cn1c(=NC(=O)C(C)C)sc2c(C)cc(C)cc21` was tested. Which Potency did it give?
Its Potency is inconclusive: 14.1 µM [inhibitor, single point].

With `COc1ccc(N2CCN(C(=O)NCc3ccc(OC)c(OC)c3)CC2)cc1` as the compound, how does the Potency read?
Its Potency is inconclusive: 251 µM [inhibitor, single point].

For `CCOc1ccc(-n2cnc3sc(C)c(C)c3c2=O)cc1`, which “activity, negative = inhibition” value is on record?
The value was inactive: 10.2%.

For `CCN1CCc2c(sc(NC(=S)NC(=O)c3ccco3)c2C(N)=O)C1`, which Potency is on record?
Its Potency is inconclusive: 22.4 µM [inhibitor, single point].

Which Potency does the source give for `Cc1cccc(NC(=O)CCN2CCC(C)CC2)c1` here?
Its Potency is inconclusive: 100 µM [inhibitor, single point].

How did the Potency turn out when `COc1ccc(C)cc1NC(=O)CNCc1cccs1` was run?
The Potency was inconclusive: 22.4 µM [inhibitor, single point].

With `CCc1ccc(NC(=O)c2cnc(N3CCN(c4ccccn4)CC3)c3ccccc23)cc1` as the compound, how does the “activity, negative = inhibition” value read?
Its value is inactive: 16.4%.

`CN1C[C@H](C(=O)N[C@]2(C)O[C@@]3(O)[C@@H]4CCCN4C(=O)[C@H](Cc4ccccc4)N3C2=O)C[C@@H]2c3cccc4[nH]cc(c34)C[C@H]21` was tested. Which “activity, negative = inhibition” value did it give?
Its value is inactive: -0.525%.

How did the “activity, negative = inhibition” value turn out when `Nc1nnc(CC(=O)N/N=C/c2cccc([N+](=O)[O-])c2)s1` was run?
The value was inactive: -2.29%.

`Clc1ccc(CN2C3=NCCCN3c3ccccc32)c(Cl)c1` was tested. Which Potency did it give?
Its Potency is inconclusive: 141 µM [inhibitor, partial curve].

How did the Potency turn out when `COc1ccc2c(c1OC)C(=O)N(c1nc(SC)n[nH]1)C2=O` was run?
Its Potency is inconclusive: 22.4 µM [inhibitor, single point].

`CC(C)Cn1c(Cc2ccccc2)n[nH]c1=S` was tested. Which “activity, negative = inhibition” value did it give?
The value was inactive: 5.28%.

`COc1ccc(-c2nc(CSCC(=O)NCCC3=CCCCC3)c(C)o2)cc1OC` was tested. Which “activity, negative = inhibition” value did it give?
The value was inactive: -2.11%.

Which Potency does the source give for `COC(=O)c1cc(C(=O)OCC(=O)Nc2cc(C)on2)cc([N+](=O)[O-])c1` here?
Its Potency is inconclusive: 100 µM [inhibitor, single point].

Source: PubChem BioAssay AID488837 (National Center for Advancing Translational Sciences (NCATS), 2010)
